Measured values reported in the supplement of paper PMC12823440, “Inhibitors supercharge kinase turnover through native proteolytic circuits” (Nature, 2025).
Counter-ions that a name gives are not always drawn. The list shows a part of the results. Hit calls seldom repeat between salt and free forms of one compound.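 Kinases were expressed as nanoluciferase fusions in K562 cells and luminescence was read every 4 h between 2 and 18 h as percent of control, DMSO set to 100% and a positive control to 0%. A time point counts as decreased when the signal drops significantly (2 sigma). The hit call is the authors' own, does not follow from the count of time points alone, and its rule is not shown.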

Target: EGFR_G719S_T790M (UniProt P00533)
Test: kinase-Nluc reporter destabilization hit call (1 = scored as downregulated) (binary); higher = compound decreases kinase abundance
Conditions: 2.5 µM; K562; 2-18 h

kinase-Nluc reporter destabilization hit call, inactive:
C[C@H](Nc1cc(-c2cnn(C)c2)cc(Nc2cnccn2)n1)c1ccc(F)cc1 [Ilginatinib hydrochloride] 0, Cc1cccc(/C=N/Nc2cc(N3CCOCC3)nc(OCCc3ccccn3)n2)c1 [Apilimod] 0, Cc1ccc(NC(=O)c2ccc(CN3CCN(C)CC3)cc2)cc1Nc1nc(-c2cccnc2)cs1 [Masitinib (mesylate)] 0, COc1cc2nccc(Oc3ccc(NC(=O)C4(C(=O)Nc5ccc(F)cc5)CC4)cc3)c2cc1OC [Cabozantinib] 0, Cc1cccc(-c2[nH]c(CNc3ccccc3F)nc2-c2ccc3ncnn3c2)n1 [Vactosertib (Hydrochloride)] 0, CC(C)Oc1ccc(-c2nn([C@@H](C)c3oc4ccc(F)cc4c(=O)c3-c3cccc(F)c3)c3ncnc(N)c23)cc1F [Umbralisib (hydrochloride)] 0, CN(C)C(=O)c1cc2cnc(Nc3ccc(N4CCNCC4)cn3)nc2n1C1CCCC1 [Ribociclib succinate hydrate] 0, O=C(Nc1ccncc1)Nc1ccc(-c2nc(N3CCOCC3)nc(N3C4CCC3COC4)n2)cc1 [PKI-179 (hydrochloride)] 0, C=CC(=O)Nc1cc(Nc2nccc(-c3cn(C4CC4)c4ccccc34)n2)c(OC)cc1N(C)CCN(C)C [Almonertinib (hydrochloride)] 0, C=CC(=O)Nc1cc2c(Nc3ccc(F)c(Cl)c3)ncnc2cc1C#CC(C)(C)N1CCN(C)CC1 [AV-412 (free base)] 0, CNC(=O)c1cc(Oc2ccc(NC(=O)Nc3ccc(Cl)c(C(F)(F)F)c3)c(F)c2)ccn1 [Regorafenib] 0
